System: mSWI/SNF complexes
Experiment: mSWI/SNF complex purification with HA-tagged baits and mass spectrometry (peptide counts)
Design: species or system human
Details: 293_HA-BRD7 bait purification, mass spectrometry; for Total: total peptide count per identified protein; for Unique: unique peptide count per identified protein

Molecule	Total	Unique
JPH1 (protein, UniProt Q9HDC5 1-661, looked up) Junctophilin-1: MTGGRFDFDDGGTYCGGWEEGKAHGHGICTGPKGQGEYSGSWSHGFEVVGGYTWPSGNTYQGYWAQGKRHGLGVETKGKWMYRGEWSHGFKGRYGVRQSLCTPARYEGTWSNGLQDGYGVETYGDGGTYQGQWAGGMRHGYGVRQSVPYGMATVIRSPLRTSLASLRSEQSNGSVLHDAAAAADSPAGTRGGFVLNFHADAELAGKKKGGLFRRGSLLGSMKLRKSESKSSISSKRSSVRSDAAMSRISSSDANSTISFGDVDCDFCPVEDHVDATTTETYMGEWKNDKRNGFGVSERSNGMKYEGEWANNKRHGYGCTVFPDGSKEEGKYKNNILVRGIRKQLIPIRHTKTREKVDRAIEGAQRAAAMARTKVEIANSRTAHARAKADAADQAALAARQECDIARAVARELSPDFYQPGPDYVKQRFQEGVDAKENPEEKVPEKPPTPKESPHFYRKGTTPPRSPEASPKHSHSPASSPKPLKKQNPSSGARLNQDKRSVADEQVTAIVNKPLMSKAPTKEAGAVVPQSKYSGRHHIPNPSNGELHSQYHGYYVKLNAPQHPPVDVEDGDGSSQSSSALVHKPSANKWSPSKSVTKPVAKESKAEPKAKKSELAIPKNPASNDSCPALEKEANSGPNSIMIVLVMLLNIGLAILFVHFLT	1	1
TMTC3 (protein, UniProt Q6ZXV5 1-915, looked up) Protein …: MANINLKEITLIVGVVTACYWNSLFCGFVFDDVSAILDNKDLHPSTPLKTLFQNDFWGTPMSEERSHKSYRPLTVLTFRLNYLLSELKPMSYHLLNMIFHAVVSVIFLKVCKLFLDNKSSVIASLLFAVHPIHTEAVTGVVGRAELLSSIFFLAAFLSYTRSKGPDNSIIWTPIALTVFLVAVATLCKEQGITVVGICCVYEVFIAQGYTLPLLCTTAGQFLRGKGSIPFSMLQTLVKLIVLMFSTLLLVVIRVQVIQSQLPVFTRFDNPAAVSPTPTRQLTFNYLLPVNAWLLLNPSELCCDWTMGTIPLIESLLDIRNLATFTFFCFLGMLGVFSIRYSGDSSKTVLMALCLMALPFIPASNLFFPVGFVVAERVLYVPSMGFCILVAHGWQKISTKSVFKKLSWICLSMVILTHSLKTFHRNWDWESEYTLFMSALKVNKNNAKLWNNVGHALENEKNFERALKYFLQATHVQPDDIGAHMNVGRTYKNLNRTKEAEESYMMAKSLMPQIIPGKKYAARIAPNHLNVYINLANLIRANESRLEEADQLYRQAISMRPDFKQAYISRGELLLKMNKPLKAKEAYLKALELDRNNADLWYNLAIVHIELKEPNEALKKNFNRALELNPKHKLALFNSAIVMQESGEVKLRPEARKRLLSYINEEPLDANGYFNLGMLAMDDKKDNEAEIWMKKAIKLQADFRSALFNLALLYSQTAKELKALPILEELLRYYPDHIKGLILKGDILMNQKKDILGAKKCFERILEMDPSNVQGKHNLCVVYFEEKDLLKAERCLLETLALAPHEEYIQRHLNIVRDKISSSSFIEPIFPTSKISSVEGKKIPTESVKEIRGESRQTQIVKTSDNKSQSKSNKQLGKNGDEETPHKTTKDIKEIEKKRVAALKRLEEIERILNGE	1	1
STT3B (protein, UniProt Q8TCJ2 2-826, looked up) Dolichyl-diphosphooligosacchar …: AEPSAPESKHKSSLNSSPWSGLMALGNSRHGHHGPGAQCAHKAAGGAAPPKPAPAGLSGGLSQPAGWQSLLSFTILFLAWLAGFSSRLFAVIRFESIIHEFDPWFNYRSTHHLASHGFYEFLNWFDERAWYPLGRIVGGTVYPGLMITAGLIHWILNTLNITVHIRDVCVFLAPTFSGLTSISTFLLTRELWNQGAGLLAACFIAIVPGYISRSVAGSFDNEGIAIFALQFTYYLWVKSVKTGSVFWTMCCCLSYFYMVSAWGGYVFIINLIPLHVFVLLLMQRYSKRVYIAYSTFYIVGLILSMQIPFVGFQPIRTSEHMAAAGVFALLQAYAFLQYLRDRLTKQEFQTLFFLGVSLAAGAVFLSVIYLTYTGYIAPWSGRFYSLWDTGYAKIHIPIIASVSEHQPTTWVSFFFDLHILVCTFPAGLWFCIKNINDERVFVALYAISAVYFAGVMVRLMLTLTPVVCMLSAIAFSNVFEHYLGDDMKRENPPVEDSSDEDDKRNQGNLYDKAGKVRKHATEQEKTEEGLGPNIKSIVTMLMLMLLMMFAVHCTWVTSNAYSSPSVVLASYNHDGTRNILDDFREAYFWLRQNTDEHARVMSWWDYGYQIAGMANRTTLVDNNTWNNSHIALVGKAMSSNETAAYKIMRTLDVDYVLVIFGGVIGYSGDDINKFLWMVRIAEGEHPKDIRESDYFTPQGEFRVDKAGSPTLLNCLMYKMSYYRFGEMQLDFRTPPGFDRTRNAEIGNKDIKFKHLEEAFTSEHWLVRIYKVKAPDNRETLDHKPRVTNIFPKQKYLSKKTTKRKRGYIKNKLVFKKGKKISKKTV	1	1
VAPA (protein, UniProt Q9P0L0 2-249, looked up) Vesicle-associated membrane …: ASASGAMAKHEQILVLDPPTDLKFKGPFTDVVTTNLKLRNPSDRKVCFKVKTTAPRRYCVRPNSGIIDPGSTVTVSVMLQPFDYDPNEKSKHKFMVQTIFAPPNTSDMEAVWKEAKPDELMDSKLRCVFEMPNENDKLNDMEPSKAVPLNASKQDGPMPKPHSVSLNDTETRKLMEECKRLQGEMMKLSEENRHLRDEGLRLRKVAHSDKPGSTSTASFRDNVTSPLPSLLVVIAAIFIGFFLGKFIL	1	1
RBM26 (protein, UniProt Q5T8P6 1-1007, looked up) RNA-binding protein 26: MVSKMIIENFEALKSWLSKTLEPICDADPSALAKYVLALVKKDKSEKELKALCIDQLDVFLQKETQIFVEKLFDAVNTKSYLPPPEQPSSGSLKVEFFPHQEKDIKKEEITKEEEREKKFSRRLNHSPPQSSSRYRENRSRDERKKDDRSRKRDYDRNPPRRDSYRDRYNRRRGRSRSYSRSRSRSWSKERLRERDRDRSRTRSRSRTRSRERDLVKPKYDLDRTDPLENNYTPVSSVPSISSGHYPVPTLSSTITVIAPTHHGNNTTESWSEFHEDQVDHNSYVRPPMPKKRCRDYDEKGFCMRGDMCPFDHGSDPVVVEDVNLPGMLPFPAQPPVVEGPPPPGLPPPPPILTPPPVNLRPPVPPPGPLPPSLPPVTGPPPPLPPLQPSGMDAPPNSATSSVPTVVTTGIHHQPPPAPPSLFTADTYDTDGYNPEAPSITNTSRPMYRHRVHAQRPNLIGLTSGDMDLPPREKPPNKSSMRIVVDSESRKRTIGSGEPGVPTKKTWFDKPNFNRTNSPGFQKKVQFGNENTKLELRKVPPELNNISKLNEHFSRFGTLVNLQVAYNGDPEGALIQFATYEEAKKAISSTEAVLNNRFIKVYWHREGSTQQLQTTSPKVMQPLVQQPILPVVKQSVKERLGPVPSSTIEPAEAQSASSDLPQNVTKLSVKDRLGFVSKPSVSATEKVLSTSTGLTKTVYNPAALKAAQKTLLVSTSAVDNNEAQKKKQEALKLQQDVRKRKQEILEKHIETQKMLISKLEKNKTMKSEDKAEIMKTLEVLTKNITKLKDEVKAASPGRCLPKSIKTKTQMQKELLDTELDLYKKMQAGEEVTELRRKYTELQLEAAKRGILSSGRGRGIHSRGRGAVHGRGRGRGRGRGVPGHAVVDHRPRALEISAFTESDREDLLPHFAQYGEIEDCQIDDSSLHAVITFKTRAEAEAAAVHGARFKGQDLKLAWNKPVTNISAVETEEVEPDEEEFQEESLVDDSLLQDDDEEEEDNESRSWRR	1	1
ASNS (protein, UniProt P08243 2-561, looked up) Asparagine synthetase …: CGIWALFGSDDCLSVQCLSAMKIAHRGPDAFRFENVNGYTNCCFGFHRLAVVDPLFGMQPIRVKKYPYLWLCYNGEIYNHKKMQQHFEFEYQTKVDGEIILHLYDKGGIEQTICMLDGVFAFVLLDTANKKVFLGRDTYGVRPLFKAMTEDGFLAVCSEAKGLVTLKHSATPFLKVEPFLPGHYEVLDLKPNGKVASVEMVKYHHCRDVPLHALYDNVEKLFPGFEIETVKNNLRILFNNAVKKRLMTDRRIGCLLSGGLDSSLVAATLLKQLKEAQVQYPLQTFAIGMEDSPDLLAARKVADHIGSEHYEVLFNSEEGIQALDEVIFSLETYDITTVRASVGMYLISKYIRKNTDSVVIFSGEGSDELTQGYIYFHKAPSPEKAEEESERLLRELYLFDVLRADRTTAAHGLELRVPFLDHRFSSYYLSLPPEMRIPKNGIEKHLLRETFEDSNLIPKEILWRPKEAFSDGITSVKNSWFKILQEYVEHQVDDAMMANAAQKFPFNTPKTKEGYYYRQVFERHYPGRADWLSHYWMPKWINATDPSARTLTHYKSAVKA	1	1
ADAR (protein, UniProt P55265 1-1226, looked up) Double-stranded RNA-specific …: MNPRQGYSLSGYYTHPFQGYEHRQLRYQQPGPGSSPSSFLLKQIEFLKGQLPEAPVIGKQTPSLPPSLPGLRPRFPVLLASSTRGRQVDIRGVPRGVHLRSQGLQRGFQHPSPRGRSLPQRGVDCLSSHFQELSIYQDQEQRILKFLEELGEGKATTAHDLSGKLGTPKKEINRVLYSLAKKGKLQKEAGTPPLWKIAVSTQAWNQHSGVVRPDGHSQGAPNSDPSLEPEDRNSTSVSEDLLEPFIAVSAQAWNQHSGVVRPDSHSQGSPNSDPGLEPEDSNSTSALEDPLEFLDMAEIKEKICDYLFNVSDSSALNLAKNIGLTKARDINAVLIDMERQGDVYRQGTTPPIWHLTDKKRERMQIKRNTNSVPETAPAAIPETKRNAEFLTCNIPTSNASNNMVTTEKVENGQEPVIKLENRQEARPEPARLKPPVHYNGPSKAGYVDFENGQWATDDIPDDLNSIRAAPGEFRAIMEMPSFYSHGLPRCSPYKKLTECQLKNPISGLLEYAQFASQTCEFNMIEQSGPPHEPRFKFQVVINGREFPPAEAGSKKVAKQDAAMKAMTILLEEAKAKDSGKSEESSHYSTEKESEKTAESQTPTPSATSFFSGKSPVTTLLECMHKLGNSCEFRLLSKEGPAHEPKFQYCVAVGAQTFPSVSAPSKKVAKQMAAEEAMKALHGEATNSMASDNQPEGMISESLDNLESMMPNKVRKIGELVRYLNTNPVGGLLEYARSHGFAAEFKLVDQSGPPHEPKFVYQAKVGGRWFPAVCAHSKKQGKQEAADAALRVLIGENEKAERMGFTEVTPVTGASLRRTMLLLSRSPEAQPKTLPLTGSTFHDQIAMLSHRCFNTLTNSFQPSLLGRKILAAIIMKKDSEDMGVVVSLGTGNRCVKGDSLSLKGETVNDCHAEIISRRGFIRFLYSELMKYNSQTAKDSIFEPAKGGEKLQIKKTVSFHLYISTAPCGDGALFDKSCSDRAMESTESRHYPVFENPKQGKLRTKVENGEGTIPVESSDIVPTWDGIRLGERLRTMSCSDKILRWNVLGLQGALLTHFLQPIYLKSVTLGYLFSQGHLTRAICCRVTRDGSAFEDGLRHPFIVNHPKVGRVSIYDSKRQSGKTKETSVNWCLADGYDLEILDGTRGTVDGPRNELSRVSKKNIFLLFKKLCSFRYRRDLLRLSYGEAKKAARDYETAKNYFKKGLKDMGYGNWISKPQEEKNFYLCPV	1	1
SETSIP (protein, UniProt P0DME0 1-292, looked up) Protein SETSIP: MAPKRQSPLPLQKKKPRPPPALGLEETSASAGLPKKGEKEQQEAIEHIDEVQNEIDRLNEQDSEEILKVEQKYNKLRQPFFQKRSELIAKIPNFGVTTFVNHPQVSSLLGEEDEEALHYLTKVEVTEFEDIKSGYRIDFYFDENPYFENKVFSKEFHLNESGDPSSKSTKIKWKSGKDVTKRSSQTQNKASRKRQHEEPESFFTWFTDHSDAGADELEEVIKDDIWPNPLQYYLVPDMDDEEGGEDDDDDDDDGDEGEEELEDIDEGDEDEGEEDEDDDEGEEGEEDEGEDD	1	1

— patent publication US12729225B2, “Non-canonical SWI/SNF complex and uses thereof” (Dana-Farber Cancer Institute, Inc., priority 2018, dated 2026)
